# According to patent US20230357253A1, “AGONISTS OF STIMULATOR OF INTERFERON GENES STING” (THE SCRIPPS RESEARCH INSTITUTE, priority 2020, published 2023):
# For at least one compound, name, drawing or mass did not settle the structure.
# System: THP-1 Lucia ISG cells
# Assay: ISRE-luciferase assay (ISG-LUC activation)
# Type: cell-based, human
# Conditions: 24 hours, luciferase reporter
# Experimental: ISRE-luciferase assay. THP-1 Lucia ISG cells were resuspended in low-serum growth media (2% FBS) at a density of 5×10^5 cells/ml and treated with test article or vehicle (DMSO). 50 μL of cells were seeded into each well of a 384-well white greiner plates and incubated for 24 hours. To evaluate expression of the luciferase reporter, 30 μl of Quanti-luc (Invivogen) detection reagent was added to each well and luminescence was read using an Envision plate reader (Perkin Elmer) set with an integration time of 0.1 seconds. For each cell type, luminescence signals for test article samples were normalized to vehicle-treated samples and reported as relative light units (RLU).
structure (smiles),measurement,value
O=C(Nc1cc(CCOc2cc(C(=O)O)c(NC(=O)c3ccc4nnnn4n3)cc2F)c(F)cc1C(=O)O)c1ccc(-n2ccnc2)nn1 [Compound 145],EC50,50 to 500 nM
